Results as given in publication PMC8546699, “Ehrlichia chaffeensis TRP120 Is a Wnt Ligand Mimetic That Interacts with Wnt Receptors and Contains a Novel Repetitive Short Linear Motif That Activates Wnt Signaling” (mSphere, 2021).
Results are given in words; binding and its absence hold for the method and conditions named. Binding calls can cover weak binding; strength is not graded here.

Protein sequences, listed by entry. Tags and fused reporters are not part of them. Lines headed by an entry give the natural chain unless they say otherwise; changes in a name come on top.
UniProt Q9ULW2: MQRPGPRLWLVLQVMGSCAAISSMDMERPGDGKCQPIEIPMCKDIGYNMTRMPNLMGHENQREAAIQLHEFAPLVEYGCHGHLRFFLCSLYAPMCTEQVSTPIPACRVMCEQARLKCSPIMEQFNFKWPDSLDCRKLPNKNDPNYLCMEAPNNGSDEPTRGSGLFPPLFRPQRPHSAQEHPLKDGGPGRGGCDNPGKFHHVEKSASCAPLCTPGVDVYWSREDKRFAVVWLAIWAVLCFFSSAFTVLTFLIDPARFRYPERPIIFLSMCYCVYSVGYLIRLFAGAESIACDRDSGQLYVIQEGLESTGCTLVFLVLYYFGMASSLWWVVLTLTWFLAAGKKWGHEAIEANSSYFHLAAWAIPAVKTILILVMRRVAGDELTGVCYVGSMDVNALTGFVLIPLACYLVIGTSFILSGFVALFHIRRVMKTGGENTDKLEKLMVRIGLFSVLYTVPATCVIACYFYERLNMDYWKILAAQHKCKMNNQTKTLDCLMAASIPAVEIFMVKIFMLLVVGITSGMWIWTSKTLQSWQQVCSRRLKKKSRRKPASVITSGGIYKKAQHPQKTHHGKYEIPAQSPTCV
UniProt Q9ULV1: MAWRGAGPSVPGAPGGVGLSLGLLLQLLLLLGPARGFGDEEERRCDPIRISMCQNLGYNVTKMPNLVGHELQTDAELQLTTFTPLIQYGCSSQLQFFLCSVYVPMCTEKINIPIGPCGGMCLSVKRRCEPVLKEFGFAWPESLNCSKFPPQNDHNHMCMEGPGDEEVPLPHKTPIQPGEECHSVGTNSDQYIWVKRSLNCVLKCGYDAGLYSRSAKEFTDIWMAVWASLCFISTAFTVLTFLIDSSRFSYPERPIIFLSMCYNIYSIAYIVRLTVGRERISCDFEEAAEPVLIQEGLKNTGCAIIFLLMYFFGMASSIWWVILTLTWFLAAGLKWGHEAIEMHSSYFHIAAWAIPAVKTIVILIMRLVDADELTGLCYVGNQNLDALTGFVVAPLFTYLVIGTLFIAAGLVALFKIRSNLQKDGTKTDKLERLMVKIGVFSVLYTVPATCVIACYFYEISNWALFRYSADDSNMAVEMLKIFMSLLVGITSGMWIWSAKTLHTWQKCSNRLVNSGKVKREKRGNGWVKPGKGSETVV
UniProt Q13467: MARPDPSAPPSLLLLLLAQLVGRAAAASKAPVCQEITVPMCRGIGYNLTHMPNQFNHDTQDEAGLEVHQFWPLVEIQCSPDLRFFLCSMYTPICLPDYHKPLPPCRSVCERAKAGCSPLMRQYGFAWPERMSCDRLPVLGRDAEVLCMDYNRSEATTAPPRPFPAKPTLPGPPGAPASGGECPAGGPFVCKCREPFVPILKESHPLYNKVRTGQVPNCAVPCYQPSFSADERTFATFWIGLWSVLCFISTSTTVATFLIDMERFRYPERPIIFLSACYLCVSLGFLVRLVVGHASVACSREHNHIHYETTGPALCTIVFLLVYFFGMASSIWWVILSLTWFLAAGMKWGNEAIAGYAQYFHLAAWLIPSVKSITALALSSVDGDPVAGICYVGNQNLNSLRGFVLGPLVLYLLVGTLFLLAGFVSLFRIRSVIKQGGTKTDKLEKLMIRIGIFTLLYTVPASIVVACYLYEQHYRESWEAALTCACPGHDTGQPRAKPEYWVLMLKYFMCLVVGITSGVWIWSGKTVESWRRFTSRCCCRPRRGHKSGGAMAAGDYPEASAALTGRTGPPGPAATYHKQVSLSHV
UniProt Q9NPG1: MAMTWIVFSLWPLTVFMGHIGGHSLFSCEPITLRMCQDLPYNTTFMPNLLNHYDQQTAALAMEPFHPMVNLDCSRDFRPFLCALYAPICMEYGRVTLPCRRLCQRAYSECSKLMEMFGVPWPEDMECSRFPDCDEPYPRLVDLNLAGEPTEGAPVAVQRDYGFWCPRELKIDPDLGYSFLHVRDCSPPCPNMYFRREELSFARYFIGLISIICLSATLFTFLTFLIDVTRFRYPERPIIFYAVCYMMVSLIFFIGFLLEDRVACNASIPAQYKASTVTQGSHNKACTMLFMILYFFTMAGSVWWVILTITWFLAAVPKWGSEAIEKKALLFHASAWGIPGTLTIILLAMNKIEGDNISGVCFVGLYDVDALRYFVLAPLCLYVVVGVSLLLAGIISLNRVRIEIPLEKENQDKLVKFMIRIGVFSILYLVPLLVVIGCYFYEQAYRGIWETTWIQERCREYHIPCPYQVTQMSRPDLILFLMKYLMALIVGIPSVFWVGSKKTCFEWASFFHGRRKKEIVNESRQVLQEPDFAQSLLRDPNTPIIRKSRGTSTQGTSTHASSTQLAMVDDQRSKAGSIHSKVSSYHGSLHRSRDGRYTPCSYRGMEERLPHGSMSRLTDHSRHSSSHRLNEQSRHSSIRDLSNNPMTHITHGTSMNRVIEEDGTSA
UniProt O60353: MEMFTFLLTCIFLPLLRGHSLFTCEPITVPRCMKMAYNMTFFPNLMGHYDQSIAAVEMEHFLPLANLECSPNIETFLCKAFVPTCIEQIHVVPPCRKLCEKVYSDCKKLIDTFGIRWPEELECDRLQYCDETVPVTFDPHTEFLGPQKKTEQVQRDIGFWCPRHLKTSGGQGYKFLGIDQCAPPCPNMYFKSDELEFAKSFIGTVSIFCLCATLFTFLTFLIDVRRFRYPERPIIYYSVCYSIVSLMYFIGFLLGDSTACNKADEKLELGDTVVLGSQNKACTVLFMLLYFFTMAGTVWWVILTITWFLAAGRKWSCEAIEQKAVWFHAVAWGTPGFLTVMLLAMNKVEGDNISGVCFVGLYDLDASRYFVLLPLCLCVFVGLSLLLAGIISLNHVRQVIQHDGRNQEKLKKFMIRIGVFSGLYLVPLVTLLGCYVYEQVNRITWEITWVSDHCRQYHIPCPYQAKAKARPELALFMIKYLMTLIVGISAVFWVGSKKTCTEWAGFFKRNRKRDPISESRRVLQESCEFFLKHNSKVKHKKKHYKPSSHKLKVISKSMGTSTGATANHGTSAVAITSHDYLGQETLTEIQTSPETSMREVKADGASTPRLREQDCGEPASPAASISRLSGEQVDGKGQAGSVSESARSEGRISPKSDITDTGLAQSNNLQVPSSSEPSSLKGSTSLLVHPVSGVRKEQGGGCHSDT
UniProt O00144: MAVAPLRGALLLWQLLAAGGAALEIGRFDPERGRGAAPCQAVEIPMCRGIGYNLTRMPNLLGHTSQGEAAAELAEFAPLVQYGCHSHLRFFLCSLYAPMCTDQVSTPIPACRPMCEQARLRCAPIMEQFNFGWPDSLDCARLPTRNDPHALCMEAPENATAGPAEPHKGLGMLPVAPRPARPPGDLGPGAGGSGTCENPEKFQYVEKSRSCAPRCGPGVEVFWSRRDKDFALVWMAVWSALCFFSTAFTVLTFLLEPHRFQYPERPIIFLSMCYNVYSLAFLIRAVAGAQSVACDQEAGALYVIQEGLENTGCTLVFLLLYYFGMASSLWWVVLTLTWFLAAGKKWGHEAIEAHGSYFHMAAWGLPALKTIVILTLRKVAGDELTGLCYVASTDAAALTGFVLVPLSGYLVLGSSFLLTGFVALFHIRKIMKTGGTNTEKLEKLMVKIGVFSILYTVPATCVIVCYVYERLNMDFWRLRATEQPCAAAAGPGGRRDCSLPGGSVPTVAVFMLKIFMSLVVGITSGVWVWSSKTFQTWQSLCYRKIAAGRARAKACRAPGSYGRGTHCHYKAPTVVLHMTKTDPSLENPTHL
UniProt Q2GI62: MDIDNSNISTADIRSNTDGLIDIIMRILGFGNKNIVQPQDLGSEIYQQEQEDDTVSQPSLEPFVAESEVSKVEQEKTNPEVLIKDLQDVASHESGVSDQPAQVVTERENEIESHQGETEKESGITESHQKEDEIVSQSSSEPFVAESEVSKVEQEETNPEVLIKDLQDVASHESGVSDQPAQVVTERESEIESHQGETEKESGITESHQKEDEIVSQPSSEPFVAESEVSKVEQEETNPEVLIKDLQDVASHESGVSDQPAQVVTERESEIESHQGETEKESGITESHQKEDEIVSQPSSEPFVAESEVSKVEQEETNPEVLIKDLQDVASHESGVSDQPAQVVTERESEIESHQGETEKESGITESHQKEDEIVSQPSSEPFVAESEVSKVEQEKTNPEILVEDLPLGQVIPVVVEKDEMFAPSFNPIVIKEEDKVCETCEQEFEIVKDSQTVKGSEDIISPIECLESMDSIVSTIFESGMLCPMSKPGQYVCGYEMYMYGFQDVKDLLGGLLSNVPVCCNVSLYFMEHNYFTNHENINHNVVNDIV

Tests used:
Test in all cases: ELISA; 100 ng rFzd protein adsorbed on MaxiSorp plate in PBS overnight at 4°C; 500 ng rTRP120 in PBS added 1 h at room temperature; detected with α-TRP120-I1 and alkaline phosphatase-conjugated secondary antibody; A650, blank-subtracted; both purified
[1] = target: recombinant Fzd10 extracellular domain (rFzd10-ECD) (UniProt Q9ULW2)
[2] = target: recombinant Fzd4 extracellular domain (rFzd4-ECD) (UniProt Q9ULV1)
[3] = target: recombinant Fzd5 extracellular domain (rFzd5-ECD) (UniProt Q13467)
[4] = target: recombinant Fzd3 extracellular domain (rFzd3-ECD) (UniProt Q9NPG1)
[5] = target: recombinant Fzd6 extracellular domain (rFzd6-ECD) (UniProt O60353)
[6] = target: recombinant Fzd9 extracellular domain (rFzd9-ECD) (UniProt O00144)

## recombinant, full-length TRP120 (rTRP120-FL) (from UniProt Q2GI62 1-548)
[1]
  binding: binds weakly
[2]
  binding: binds
[3]
  binding: binds
[4]
  binding: binds weakly
[5]
  binding: binds weakly
[6]
  binding: binds
